Our source for the IL-6-GFP fluorescence values is the supplement of paper PMC8866396.

“And” between values parts separate entries of the source, which are not always exact repeats. Equal values may be shown once. ± gives the standard deviation of the averaged measurements. The list shows a part of the results. Repeats in this data set agree poorly, so a single value says little.

The first experiment deals with IL-6-GFP PC-9GR. Put plainly: IL-6-GFP fluorescence relative to DMSO control (fraction of control); higher = more IL-6-GFP expression. To be noted: compound concentration: 10 uM; treatment time: 48 h. The protocol:
(§1)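 IL-6-GFP-overexpressing PC-9 and PC-9GR EGFR-mutant lung cancer cells (3000 cells/well, 96-well) were treated for 48 h with each compound of the Selleck L2000 library at 10 uM. IL-6-GFP fluorescence was read on a high-content screening system, and viability by CCK-8 absorbance on a parallel plate set. Each value was normalised as compound well / DMSO control well; two independent replicates.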
In turn, `CS(=O)(=O)n1cc2c(n1)CN(C1COC(c3cc(F)ccc3F)C(N)C1)C2` (stereo not drawn) [Omarigliptin (MK-3102)] displayed an IL-6-GFP fluorescence of 0.933 ± 0.1.
Consider `NC(=S)N/N=C/c1ncccc1N` [Triapine], for which the IL-6-GFP fluorescence was determined as 2.38 ± 0.7.
On the same count and under the same terms, the same measure for `CC(C)(C)c1nc(-c2cccc(NS(=O)(=O)c3c(F)cccc3F)c2F)c(-c2ccnc(N)n2)s1`: 0.905 ± 0.18; for `NC(CC(=O)N1CCn2c(nnc2C(F)(F)F)C1)Cc1cc(F)c(F)cc1F` (stereo not drawn) [Sitagliptin]: 0.902 ± 0.039.
Still for that read-out and setting: the same measure for `CCCCCCCCc1ccc(CCC(N)(CO)CO)cc1` [Fingolimod]: 0.973 ± 0.11; for `N#CCC(C1CCCC1)n1cc(-c2ncnc3[nH]ccc23)cn1` (stereo not drawn): 0.831 and 0.868.
Still for that read-out and setting: for `O=C(O)c1cc(-c2ccc(F)cc2F)ccc1O` [Diflunisal] the value was 0.45 ± 0.48; for `O=C(OCCOCCO)c1ccccc1Nc1cccc(C(F)(F)F)c1` [Etofenamate], 0.876 ± 0.051.
`O=C(O)CCCN1CCC(OC(c2ccc(Cl)cc2)c2ccccn2)CC1` (stereo not drawn) [Bepotastine] gave an IL-6-GFP fluorescence of 0.933 ± 0.019.
`CCN(CC)CCNC(=O)c1c(C)[nH]c(/C=C2\C(=O)Nc3ccc(F)cc32)c1C` [Sunitinib] came in with an IL-6-GFP fluorescence of 1.93 ± 0.86.
Still for that read-out and setting: for `Cc1cn(-c2cc(NC(=O)c3ccc(C)c(Nc4nccc(-c5cnccn5)n4)c3)cc(C(F)(F)F)c2)cn1` [Radotinib] the value was 1 ± 0.15.
`Cc1cc2ncc(C(=O)NCC(C)(C)NCC(=O)N3CCCC3C#N)cn2n1` (stereo not drawn) [Anagliptin]: the IL-6-GFP fluorescence amounted to 0.712 ± 0.23.
Same read-out and setting: for `CC1=NN(c2ccc(C)c(C)c2)C(=O)/C1=N\Nc1cccc(-c2cccc(C(=O)O)c2)c1O.NCCO.NCCO` [Eltrombopag Olamine] the value was 0.28 ± 0.072; for `C=CC(=O)N1CCCC(n2nc(-c3ccc(Oc4ccccc4)cc3)c3c(N)ncnc32)C1` (stereo not drawn), 0.179 ± 0.17.

The test system of the next experiment is IL-6-GFP PC-9. The experiment is described as above. To be noted: compound concentration: 10 uM; treatment time: 48 h. The procedure:
as §1
`CN1C(C(=O)Nc2ccccn2)=C(O)c2ccccc2S1(=O)=O` [Piroxicam] displayed an IL-6-GFP fluorescence of 1.25 ± 0.029.
Same read-out and setting: for `CCC1=CC2CN(C1)Cc1c([nH]c3ccccc13)C(C(=O)OC)(c1cc3c(cc1OC)N(C)C1C(O)(C(=O)OC)C(OC(C)=O)C4(CC)C=CCN5CCC31C54)C2.O=C(O)C(O)C(O)C(=O)O.O=C(O)C(O)C(O)C(=O)O` (stereo not drawn) [Vinorelbine Tartrate] the value was 1.15 ± 0.14.
The same measure, in the same setting: the same measure for `CC1(C)OC2CC3C4CCC5=CC(=O)C=CC5(C)C4(F)C(O)CC3(C)C2(C(=O)CO)O1` (stereo not drawn) [Triamcinolone Acetonide]: 0.991 ± 0.09; for `CCCC(=O)OC1(C(=O)CCl)C(C)CC2C3CCC4=CC(=O)C=CC4(C)C3(F)C(=O)CC21C` (stereo not drawn) [clobetasone butyrate]: 0.743 ± 0.014.
The same measure, in the same setting: the same measure for `C=C(NC(=O)C(=C)NC(=O)c1csc(C2=NC3c4csc(n4)C4NC(=O)c5csc(n5)C(C(C)(O)C(C)O)NC(=O)C5CSC(=N5)/C(=C/C)NC(=O)C(C(C)O)NC(=O)c5csc(n5)C3(CC2)NC(=O)C(C)NC(=O)C(=C)NC(=O)C(C)NC(=O)C(C(C)CC)NC2C=Cc3c(C(C)O)cc(nc3C2O)C(=O)OC4C)n1)C(N)=O` (stereo not drawn) [Thiostrepton]: 1.07 ± 0.19; for `OCc1ccccc1OC1OC(CO)C(O)C(O)C1O` (stereo not drawn) [Salicin]: 1.02 ± 0.036; for `CC(=O)OC12COC1CC(O)C1(C)C(=O)C(O)C3=C(C)C(OC(=O)C(O)C(NC(=O)OC(C)(C)C)c4ccccc4)CC(O)(C(OC(=O)c4ccccc4)C21)C3(C)C.O.O.O` (stereo not drawn) [Docetaxel Trihydrate]: 1.007 ± 0.0082.
`CN(C)C(=O)c1cc2cnc(Nc3ccc(N4CCNCC4)cn3)nc2n1C1CCCC1` [Ribociclib (LEE011)] showed an IL-6-GFP fluorescence of 1.05 ± 0.13.
The same measure, in the same setting: the same measure for `CC(OCC1(c2ccccc2)CCC2(CCC(=O)N2)CN1)c1cc(C(F)(F)F)cc(C(F)(F)F)c1` (stereo not drawn) [Rolapitant]: 0.913 ± 0.15; for `CC(C)Cc1ccc(C(C)C(=O)O)cc1.NCCCCC(N)C(=O)O` (stereo not drawn) [Ibuprofen Lysine]: 0.651 ± 0.3.
Still for that read-out and setting: the same measure for `C=C1c2cccc(O)c2C(=O)C2=C(O)C3(O)C(=O)C(C(N)=O)=C(O)C(N(C)C)C3C(O)C12.Cl` (stereo not drawn) [Methacycline HCl]: 0.763 ± 0.23.
On to `CS(=O)(=O)CCNCc1ccc(-c2ccc3ncnc(Nc4ccc(OCc5cccc(F)c5)c(Cl)c4)c3c2)o1.Cc1ccc(S(=O)(=O)O)cc1.Cc1ccc(S(=O)(=O)O)cc1`, for which the IL-6-GFP fluorescence amounted to 1.35 ± 0.039.
In turn, `C/C=C(/C(=C/C)c1ccc(O)cc1)c1ccc(O)cc1` [Dienestrol] registered an IL-6-GFP fluorescence of 0.89 ± 0.1.
With `CC#CCn1c(N2CCCC(N)C2)nc2c1c(=O)n(Cc1nc(C)c3ccccc3n1)c(=O)n2C` (stereo not drawn) [Linagliptin], the IL-6-GFP fluorescence came out at 0.784 ± 0.064.
The same measure, in the same setting: the same measure for `COc1cc2ncnc(Nc3ccc(F)c(Cl)c3)c2cc1OCCCN1CCOCC1` [Gefitinib (ZD1839)]: 0.961 ± 0.038; for `O=C(O)COC(=O)Cc1ccccc1Nc1c(Cl)cccc1Cl` [Aceclofenac]: 0.878 ± 0.19.
Same read-out and setting: the same measure for `CNNCc1ccc(C(=O)NC(C)C)cc1.Cl` [Procarbazine HCl]: 1.19 ± 0.083.
Same read-out and setting: for `Nc1nc(CC(=O)Nc2ccc(CCNCC(O)c3ccccc3)cc2)cs1` (stereo not drawn) [Mirabegron] the value was 1.03 ± 0.1; for `CCC(C)n1ncn(-c2ccc(N3CCN(c4ccc(OCC5COC(Cn6cncn6)(c6ccc(Cl)cc6Cl)O5)cc4)CC3)cc2)c1=O` (stereo not drawn) [Itraconazole], 0.958 ± 0.13; for `O=C([O-])c1cc(N=Nc2ccc(O)c(C(=O)[O-])c2)ccc1O.[Na+].[Na+]` [Olsalazine Sodium], 0.708 ± 0.013.
In turn, `CC(CN1c2ccccc2Sc2ccccc21)N(C)C.Cl` (stereo not drawn) [Promethazine HCl] showed an IL-6-GFP fluorescence of 1 ± 0.058.
Same read-out and setting: the same measure for `CC(=O)OC1C(=O)C2(C)C(O)CC3OCC3(OC(C)=O)C2C(OC(=O)c2ccccc2)C2(O)CC(OC(=O)C(O)C(NC(=O)c3ccccc3)c3ccccc3)C(C)=C1C2(C)C` (stereo not drawn) [Paclitaxel]: 0.98 ± 0.058; for `CCC1(O)C(=O)OCc2c1cc1n(c2=O)Cc2cc3cc(O)ccc3nc2-1` [(S)-10-Hydroxycamptothecin]: 1.39 ± 0.16; for `CCc1cc2c(cc1N1CCC(N3CCOCC3)CC1)C(C)(C)c1[nH]c3cc(C#N)ccc3c1C2=O`: 0.957 ± 0.23.
The same measure, in the same setting: the same measure for `CNCC(O)c1ccc(O)c(O)c1.O=C(O)C(O)C(O)C(=O)O` (stereo not drawn) [Epinephrine bitartrate]: 1.53 ± 0.75; for `CS(=O)(=O)n1cc2c(n1)CN(C1COC(c3cc(F)ccc3F)C(N)C1)C2` (stereo not drawn) [Omarigliptin (MK-3102)]: 0.8912 ± 0.0076.
The same measure, in the same setting: for `NC(=S)N/N=C/c1ncccc1N` [Triapine] the value was 2.04 ± 0.037; for `CC(C)(C)c1nc(-c2cccc(NS(=O)(=O)c3c(F)cccc3F)c2F)c(-c2ccnc(N)n2)s1`, 0.748 ± 0.3; for `NC(CC(=O)N1CCn2c(nnc2C(F)(F)F)C1)Cc1cc(F)c(F)cc1F` (stereo not drawn) [Sitagliptin], 0.824 ± 0.19.
In the case of `CCCCCCCCc1ccc(CCC(N)(CO)CO)cc1` [Fingolimod], the IL-6-GFP fluorescence stood at 0.812 ± 0.029.
In the case of `N#CCC(C1CCCC1)n1cc(-c2ncnc3[nH]ccc23)cn1` (stereo not drawn), the IL-6-GFP fluorescence was 1.01 and 1.06.
Same read-out and setting: for `O=C(O)c1cc(-c2ccc(F)cc2F)ccc1O` [Diflunisal] the value was 0.917 ± 0.011.
In turn, `O=C(OCCOCCO)c1ccccc1Nc1cccc(C(F)(F)F)c1` [Etofenamate] yielded an IL-6-GFP fluorescence of 0.956 ± 0.0097.
Turning to `O=C(O)CCCN1CCC(OC(c2ccc(Cl)cc2)c2ccccn2)CC1` (stereo not drawn) [Bepotastine], the IL-6-GFP fluorescence came out at 0.912 ± 0.019.
Regarding `CCN(CC)CCNC(=O)c1c(C)[nH]c(/C=C2\C(=O)Nc3ccc(F)cc32)c1C` [Sunitinib], the IL-6-GFP fluorescence turned out to be 1.2 ± 0.47.
On the same count and under the same terms, the same measure for `Cc1cn(-c2cc(NC(=O)c3ccc(C)c(Nc4nccc(-c5cnccn5)n4)c3)cc(C(F)(F)F)c2)cn1` [Radotinib]: 0.751 ± 0.33.
On the same count and under the same terms, for `Cc1cc2ncc(C(=O)NCC(C)(C)NCC(=O)N3CCCC3C#N)cn2n1` (stereo not drawn) [Anagliptin] the value was 0.933 ± 0.18; for `CC1=NN(c2ccc(C)c(C)c2)C(=O)/C1=N\Nc1cccc(-c2cccc(C(=O)O)c2)c1O.NCCO.NCCO` [Eltrombopag Olamine], 0.341 ± 0.29.
On the same count and under the same terms, for `C=CC(=O)N1CCCC(n2nc(-c3ccc(Oc4ccccc4)cc3)c3c(N)ncnc32)C1` (stereo not drawn) the value was 0.457 ± 0.12.
